{"source": "PubChem BioAssay AID540256", "about": "(National Center for Advancing Translational Sciences (NCATS), 2011)", "note": "The campaign covered roughly 300,000 compounds. About 3,700 (1.2%) were called active. This list was built around the results that the source calls inconclusive (neither active nor inactive); the mix of calls is not that of the screen. Calls come from the whole dose curve; tested in HEK293 cells. A potency beside an inconclusive call is a rough fit, not a confirmed value. Potency is the fitted concentration of half-maximal effect."}
{"test": "qHTS for Inhibitors of binding or entry into cells for Lassa Virus; note: nearly all actives have a fitted effect of over 50% in size", "settings": "Lassa virus pseudotype entry inhibition, cell reporter; series mostly up to 37.9 µM"}
{"smiles": "CC(C)C(=O)N1N=C(c2ccc(NS(C)(=O)=O)cc2)CC1c1cccs1", "note": "(centres undefined)", "Potency": "inconclusive: 5.62 µM [inhibitor, single point]"}
{"smiles": "COc1ccc2nc(C)c3cc(C)oc3c2c1", "Potency": "inactive"}
{"smiles": "Cc1ccccc1NC(=O)Cn1c(=O)oc2cc(Br)ccc21", "Potency": "inconclusive: 0.562 µM [inhibitor, full curve, poor fit]"}
{"smiles": "COc1ccccc1-c1nc2c(c(SCC(=O)Nc3ccc(C)c(C)c3)n1)Cc1c(CO)cnc(C)c1O2", "Potency": "inactive"}
{"smiles": "CCOC(=O)C1(Cc2ccccc2C)CCCN(C(=O)c2ccccn2)C1", "note": "(centres undefined)", "Potency": "inactive"}
{"smiles": "Oc1ccc(/C=N/Nc2ccc(C(F)(F)F)cn2)cc1", "Potency": "inactive"}
{"smiles": "CCN(Cc1ccncc1)C(=O)c1ccccc1NS(=O)(=O)c1ccc(F)cc1", "Potency": "inactive"}
{"smiles": "CCNC(=O)CCSc1nnc(-c2ccco2)o1", "Potency": "inconclusive: 1.78 µM [inhibitor, partial curve, poor fit]"}
{"smiles": "COc1ccc(NC(=O)Nc2ccccc2F)cc1Cl", "Potency": "inconclusive: 0.891 µM [activator, full curve, poor fit]"}
{"smiles": "C[C@H](NC(=O)Nc1cccc(Br)c1)C(=O)O", "Potency": "inconclusive: 35.5 µM [activator, single point]"}
{"smiles": "CCCC=Cc1ccc(CN2C(C(C)C)C(=O)N(Cc3cn(Cc4ccco4)nn3)CCS2(=O)=O)cc1", "note": "(centres undefined)", "Potency": "inconclusive: 0.0705 µM [activator, full curve, poor fit]"}
{"smiles": "COc1ccc(CN2CCCN(S(=O)(=O)c3ccc(Br)cc3)CC2)cc1", "Potency": "inconclusive: 17.8 µM [inhibitor, partial curve, poor fit]"}
{"smiles": "O=C(Nc1ccc(Cl)cc1)N1CCC(c2nc(-c3ccc(F)cc3)no2)CC1", "Potency": "inactive"}
{"smiles": "COc1ccc(-c2cn3c(C)c(C(=O)Nc4cccc(C)n4)sc3n2)cc1", "Potency": "inconclusive: 29.1 µM [inhibitor, single point]"}
{"smiles": "Cc1cc(/C=C2/NC(=O)NC2=O)c(C)n1C", "Potency": "inactive"}
{"smiles": "CCOc1ccc(N(C(C)C(=O)N/N=C(\\C)c2cccc(NC(=O)c3ccccc3)c2)S(C)(=O)=O)cc1", "note": "(centres undefined)", "Potency": "inconclusive: 35.5 µM [inhibitor, single point]"}
{"smiles": "Cc1sc2ncn(CC(=O)NCCCN3CC(C)CC(C)C3)c(=O)c2c1S(=O)(=O)N1CC(C)CC(C)C1", "note": "(centres undefined)", "Potency": "inconclusive: 29.1 µM [inhibitor, single point]"}
{"smiles": "Cc1ccc(C)c(C(=O)COC(=O)c2n[nH]c3ccccc23)c1", "Potency": "inconclusive: 35.5 µM [inhibitor, single point]"}
{"smiles": "CCC(CC)c1nnc(NC(=O)c2ccc3c(c2)OCO3)s1", "Potency": "inconclusive: 6.31 µM [inhibitor, single point]"}
